Source: patent US20250382364A1
Results are given in words; binding and its absence hold for the method and conditions named. Some entries that bind do so weakly or less than the wild type.

The chains behind the UniProt entries cited, without tags or fusion partners. Where a name states a change or a piece, a line headed by the entry shows the natural chain unless it says otherwise. Residues count along the entry.
UniProt Q6DKI7, 41-171: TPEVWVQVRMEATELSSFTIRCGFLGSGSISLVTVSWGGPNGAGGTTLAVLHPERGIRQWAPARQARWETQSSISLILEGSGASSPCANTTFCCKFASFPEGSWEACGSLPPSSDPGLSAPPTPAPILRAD

Target: PVRIG (Poliovirus Receptor Related Immunoglobulin Domain Containing Protein) (human) (UniProt Q6DKI7)
Assay: description in Example 2; no assay given

binding: binds
B1: CHA.7.518.1.H4(S241P) (antibody, human IgG4 S228P, kappa, V domains shown)
VH: QVQLVQSGAEVKKPGASVKVSCKASGYTFTDYNINWVRQAPGQGLEWMGYIYPYIGGSGYAQKFQGRVTMTRDTSTSTVYMELSSLRSEDTAVYYCAREDKTARNAMDYWGQGTLVTVSS
VL: DIQMTQSPSSLSASVGDRVTITCRVSENIYSNLAWYQQKPGKAPKLLIYEATNLAEGVPSRFSGSGSGTDFTLTISSLQPEDFATYYCQHFWGTPYTFGQGTKLEIKR
